Results deposited as PubChem BioAssay AID1224828 (NIAID, 2016).
Aim: 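Find genes required for NF-kappaB p65 moving into the nucleus after LPS in mouse macrophages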 (primary screen). System: mouse RAW264.7 G9 macrophage reporter cells (GFP-p65, Tnf promoter-mCherry). Reagent: siRNA pool against mouse genes, 100 nM. Time to read-out: 2 days siRNA transfection, then 40 min LPS before fixation. Challenge: LPS (Salmonella minnesota R595) at 10 ng/ml. Measurement: 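Microscopy ratio of nuclear to perinuclear-ring GFP-p65 signal, scaled to the plate median; gene score is the average of two replicate robust z-scores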. Reading the numbers: p65 translocation robust z-score: higher = more nuclear NF-kappaB p65 after LPS than the plate median; nuclear/cytoplasmic p65 ratio: higher = more nuclear NF-kappaB p65. Active means: 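Called active when z exceeds 3.3 or falls under -1.56 (median of Tlr4 controls), giving activity score of at least 50; no calls for control wells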. Meaning of the calls: active = hit (p65 shift raised or lowered); inactive = no clear change.
Shown is one part, drawn at random, of about 17,000 deposited reagents. Over the whole deposit, 762 (4.5%) got an active call. 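Active calls include both raised and lowered p65 entry, mostly lowered; wells with fewer than 50 cells lack a z-score.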 The raw values are shown without normalisation. Entries without a mark were called inactive. Reagents against one gene are numbered here.

Ahcyl2 (S-adenosylhomocysteine hydrolase-like 2) | nuclear/cytoplasmic p65 ratio, rep 1: 1.12; nuclear/cytoplasmic p65 ratio, rep 2: 1.3; low cell count flag: fewer than 50 cells per well; well left out of scoring
Arfip2 (ARF interacting protein 2) | p65 translocation robust z-score: -0.47; nuclear/cytoplasmic p65 ratio, rep 1: 1.51; nuclear/cytoplasmic p65 ratio, rep 2: 1.59; low cell count flag: enough cells to score
Gulo (gulonolactone (L-) oxidase) | p65 translocation robust z-score: -2.28 (active); nuclear/cytoplasmic p65 ratio, rep 1: 1.95; nuclear/cytoplasmic p65 ratio, rep 2: 1.23; low cell count flag: enough cells to score
St6galnac1 | p65 translocation robust z-score: 1.31; nuclear/cytoplasmic p65 ratio, rep 1: 1.55; nuclear/cytoplasmic p65 ratio, rep 2: 1.41; low cell count flag: enough cells to score
Nudt19 (nudix hydrolase 19) | p65 translocation robust z-score: -1.2; nuclear/cytoplasmic p65 ratio, rep 1: 1.28; nuclear/cytoplasmic p65 ratio, rep 2: 1.4; low cell count flag: enough cells to score
Cenpb (centromere protein B) | p65 translocation robust z-score: -0.06; nuclear/cytoplasmic p65 ratio, rep 1: 1.4; nuclear/cytoplasmic p65 ratio, rep 2: 1.42; low cell count flag: enough cells to score
Ndufb5 (NADH:ubiquinone oxidoreductase subunit B5) | p65 translocation robust z-score: -1.96 (active); nuclear/cytoplasmic p65 ratio, rep 1: 1.59; nuclear/cytoplasmic p65 ratio, rep 2: 1.19; low cell count flag: enough cells to score
Tbx2 (T-box 2) | p65 translocation robust z-score: -1.52; nuclear/cytoplasmic p65 ratio, rep 1: 1.24; nuclear/cytoplasmic p65 ratio, rep 2: 1.37; low cell count flag: enough cells to score
Klra6 (killer cell lectin-like receptor, subfamily A, member 6) | p65 translocation robust z-score: -0.6; nuclear/cytoplasmic p65 ratio, rep 1: 1.38; nuclear/cytoplasmic p65 ratio, rep 2: 1.31; low cell count flag: enough cells to score
A730085E03Rik (RIKEN cDNA A730085E03 gene) | p65 translocation robust z-score: 0.22; nuclear/cytoplasmic p65 ratio, rep 1: 1.43; nuclear/cytoplasmic p65 ratio, rep 2: 1.54; low cell count flag: enough cells to score
Tmprss6 (transmembrane serine protease 6) | nuclear/cytoplasmic p65 ratio, rep 1: 1.47; nuclear/cytoplasmic p65 ratio, rep 2: 1.37; low cell count flag: fewer than 50 cells per well; well left out of scoring
Ddx20 (DEAD box helicase 20) | p65 translocation robust z-score: 0.52; nuclear/cytoplasmic p65 ratio, rep 1: 1.59; nuclear/cytoplasmic p65 ratio, rep 2: 1.41; low cell count flag: enough cells to score

Just “nuclear/cytoplasmic p65 ratio, rep 1” (3 entries from above):
Gulo (gulonolactone (L-) oxidase) = 1.95 (active)
St6galnac1 = 1.55
Nudt19 (nudix hydrolase 19) = 1.28

Continued.
Or5m5 (olfactory receptor family 5 subfamily M member 5) | p65 translocation robust z-score: -0.23; nuclear/cytoplasmic p65 ratio, rep 1: 1.68; nuclear/cytoplasmic p65 ratio, rep 2: 1.49; low cell count flag: enough cells to score
Lysmd4 (LysM, putative peptidoglycan-binding, domain containing 4) | nuclear/cytoplasmic p65 ratio, rep 1: 1.24; nuclear/cytoplasmic p65 ratio, rep 2: 1.28; low cell count flag: fewer than 50 cells per well; well left out of scoring
Syt4 (synaptotagmin IV) | p65 translocation robust z-score: -0.7; nuclear/cytoplasmic p65 ratio, rep 1: 1.25; nuclear/cytoplasmic p65 ratio, rep 2: 1.13; low cell count flag: enough cells to score
Rpl7a (ribosomal protein L7A) | nuclear/cytoplasmic p65 ratio, rep 1: 1.7; nuclear/cytoplasmic p65 ratio, rep 2: 1.24; low cell count flag: fewer than 50 cells per well; well left out of scoring
Or10j2 (olfactory receptor family 10 subfamily J member 2) | p65 translocation robust z-score: 0.47; nuclear/cytoplasmic p65 ratio, rep 1: 1.57; nuclear/cytoplasmic p65 ratio, rep 2: 1.67; low cell count flag: enough cells to score
Ccdc166 (coiled-coil domain containing 166) | p65 translocation robust z-score: 0.46; nuclear/cytoplasmic p65 ratio, rep 1: 1.52; nuclear/cytoplasmic p65 ratio, rep 2: 1.47; low cell count flag: enough cells to score
Tm7sf3 (transmembrane 7 superfamily member 3) | p65 translocation robust z-score: 0.13; nuclear/cytoplasmic p65 ratio, rep 1: 1.43; nuclear/cytoplasmic p65 ratio, rep 2: 1.61; low cell count flag: enough cells to score
Rhbdd2 (rhomboid domain containing 2) #1 | nuclear/cytoplasmic p65 ratio, rep 1: 1.17; nuclear/cytoplasmic p65 ratio, rep 2: 1.03; low cell count flag: fewer than 50 cells per well; well left out of scoring
Rhbdd2 (rhomboid domain containing 2) #2 | nuclear/cytoplasmic p65 ratio, rep 1: 1.17; nuclear/cytoplasmic p65 ratio, rep 2: 1.18; low cell count flag: fewer than 50 cells per well; well left out of scoring
